Laboratory results taken from paper PMC10734219.
Results are given in words; binding and its absence hold for the method and conditions named. Binding seen in cells or lysates may run through a third protein. A result given as binding can be weak or reduced; the word gives no strength.

Protein sequences, listed by entry. Tags and fused reporters are not part of them. Lines headed by an entry give the natural chain unless they say otherwise; changes in a name come on top.
UniProt Q9X1L9: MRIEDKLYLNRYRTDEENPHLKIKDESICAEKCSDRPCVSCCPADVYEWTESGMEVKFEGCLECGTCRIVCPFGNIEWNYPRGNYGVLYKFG

Molecular target: Thermotoga maritima EtfA (Tm1530), N-terminal 9x His tag (Thermotoga maritima) (UniProt Q9X1L6)
Assay: co-purification (His-tag affinity chromatography, then gel filtration); subunits co-expressed from one operon in E. coli; captured by the N-terminal His9 tag of EtfA on HisTrap FF (50 mM phosphate pH 7.5, 500 mM NaCl, imidazole), then Superdex 200 in 25 mM HEPES pH 7.5, 200 mM NaCl …; fractions checked by SDS-PAGE, subunits verified by MS/MS

binding: binds
Substance: Thermotoga maritima EtfX (Tm1533) (from UniProt Q9X1L9)
